Measured values from PubChem BioAssay AID504834 (National Center for Advancing Translational Sciences (NCATS), 2011).
The campaign covered roughly 320,000 compounds. About 22,000 (6.9%) were called active. Inconclusive results, whose numbers are uncertain, are shown with a selection of clear calls. The call rests on the fitted dose curve; in most records, active means well fitted inhibition curve with a large enough effect; inconclusive means small, poorly fitted or top-dose-only effect, or another doubt; inactive means no such curve, though single readings can be large or run the other way. A potency beside an inconclusive call is a rough fit, not a confirmed value. Some structures have more than one record in an assay (separate samples or runs), and their calls can disagree.

Experiment: Primary qHTS for delayed death inhibitors of the malarial parasite plastid, 96 hour incubation
Details: P. falciparum luciferase reporter growth; series mostly up to 28.7 µM
Outline: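 Two parasite generations (96 h, 37 C, 5% CO2) of compound exposure in infected erythrocytes (0.05% parasitemia, 2% hematocrit). Luciferase-reporter P. falciparum; decreased luminescence indicates inhibited growth, aimed at apicoplast-acting delayed death.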
Potency means the concentration at half of the fitted maximal effect.

| SMILES | Potency |
| --- | --- |
| Cc1cccc(N(CC(=O)NCc2ccco2)C(=O)CCC(=O)Nc2nccs2)c1C | inconclusive: 8.28 µM [inhibitor, partial curve, poor fit] |
| CCOc1ccccc1NC(=O)CSc1nc2c(c(=O)n1C)SC(C)C2 (configuration not stated) | inconclusive: 11.7 µM [inhibitor, single point] |
| COc1c(N2CCNC(C)C2)c(F)cc2c(=O)c(C(=O)O)cn(C3CC3)c12 (configuration not stated) | active: 5.36 µM |
| COCCn1c(SCC(=O)N2CC(=O)Nc3ccccc32)nc2ccccc2c1=O | inconclusive: 18.5 µM [inhibitor, single point] |
| Cc1ccc(Cc2cnc(N3C(=N)SC(c4ccccc4)C3=O)s2)cc1 (configuration not stated) | active: 9.28 µM |
| Cc1cccc(C)c1NC(=O)CNC(=O)c1ccc2c(c1)OCCO2 | inconclusive: 0.0928 µM [inhibitor, full curve, poor fit] |
| CCc1ccc2c(CN(C)Cc3ccc(OC(F)F)c(OC)c3)cc(=O)oc2c1 | inconclusive: 10.4 µM [inhibitor, single point] |
| CCC(=O)N1CCc2cc(S(=O)(=O)CCC(=O)Nc3ccc(C)cn3)ccc21 | inconclusive: 9.28 µM [inhibitor, single point] |
| CCN(Cc1ccc(C#CCCO)cc1)CC1CCCN(CCc2cccc(F)c2)C1 (configuration not stated) | inactive |
| CCCCn1c(-c2ccco2)nc2oc3ccccc3c(=O)c2c1=O | active: 9.28 µM |
| CCN(Cc1ccccc1)C(=O)c1c(-c2ccccc2Cl)noc1C | inconclusive: 18.5 µM [inhibitor, single point] |
| O=C(O)COc1ccc(/C=N/NC(=O)/C(=C/C=C/c2ccccc2)NC(=O)c2ccccc2)cc1 | inconclusive: 13.1 µM [inhibitor, single point] |
| CN(C)N1C(N)=C(C#N)C(c2ccc3c(c2)OCO3)C2=C1CC(C)(C)CC2=O (configuration not stated) | inconclusive: 18.5 µM [inhibitor, single point] |
| O=c1cc(CO)oc(C(Nc2ccccn2)c2ccccc2Cl)c1O (configuration not stated) | inconclusive: 18.5 µM [inhibitor, single point] |
| FC(F)(F)c1ccnc(N2CCN(Cc3cnc(-c4ccccc4)[nH]3)CC2)c1 | inactive |
| COc1ccc(Nc2nc(-c3cccs3)cs2)cc1 | active: 0.522 µM |
| CC(NC(=O)C12CC3CC(C)(CC(C)(C3)C1)C2)c1ccncc1 (configuration not stated) | inconclusive: 8.28 µM [inhibitor, partial curve, poor fit] |
| COc1ccc(S(=O)(=O)N(CCCN2CCOCC2)Cc2cccc3ccccc23)cc1 | inconclusive: 13.1 µM [inhibitor, partial curve, poor fit] |
| Cc1noc(C)c1CSCC(=O)Nc1cc(Cl)ccc1N1CCOCC1 | inconclusive: 0.0104 µM [inhibitor, full curve, poor fit] |
| O=C(Nc1ccc2c(c1)OCCO2)c1ccc(Br)o1 | inactive |
| Clc1ccc(SCc2cc(N3CCOCC3)nc(-c3ccccn3)n2)cc1 | inconclusive: 0.928 µM [inhibitor, partial curve, poor fit] |
| CCOC(=O)c1c[nH]n(-c2ccccc2)c1=O | inactive |
| C/C(=N\NC(=O)c1c(C)nc2ccccn12)c1ccc(O)cc1O | active: 3.29 µM |

| SMILES | Potency |
| --- | --- |
| COc1ccc(-n2c(O)c(/C=N/NS(=O)(=O)c3cccc([N+](=O)[O-])c3)c3ccccc3c2=O)cc1OC | inconclusive: 18.5 µM [inhibitor, single point] |
| O=C(c1ccc(F)cc1)C1CCN(C(=S)Nc2ccccc2Cl)CC1 | inconclusive: 2.62 µM [inhibitor, full curve, poor fit] |
| CCC(C)(C)C1CCc2[nH]nc(C(=O)NCCN3CCOCC3)c2C1 (configuration not stated) | inconclusive: 10.4 µM [inhibitor, single point] |
| CC1CCCCN1C(=O)c1cnn2c(C(F)(F)F)cc(-c3ccco3)nc12 (configuration not stated) | inconclusive: 11.7 µM [inhibitor, single point] |
| Cc1ccc(NC(=O)/C(=C\c2ccc([N+](=O)[O-])cc2)NC(=O)c2ccccc2)cc1 | active: 5.22 µM |
| COc1ccc(-c2nc3ccccc3c(=O)n2O)cc1 | inconclusive: 18.5 µM [inhibitor, single point] |
| CS(=O)(=O)Cc1cc(N2CCCC2)nc(-c2ccccc2)n1 | inactive |
| COc1ccc(-n2cc(CNCCCN3CCCC3=O)c(-c3ccccc3Cl)n2)cc1 | inconclusive: 18.5 µM [inhibitor, single point] |
| CCCN(CC(=O)Nc1ccccc1OC)C(=O)c1cc(-c2ccccc2)nn1-c1ccccc1 | inconclusive: 18.5 µM [inhibitor, single point] |
| COc1ccc(/C(C)=N/Nc2cc(C(F)(F)F)ccc2Cl)c(OC)c1 | inconclusive: 10.4 µM [inhibitor, single point] |
| CCCCN(C(=O)CCn1c(=O)oc2ccccc21)c1ccccc1 | inconclusive: 18.5 µM [inhibitor, single point] |
| O=C(Nc1ccc2c(c1)OCO2)Nc1ccc(F)cc1F | inconclusive: 0.0928 µM [inhibitor, full curve, poor fit] |
| O=S(=O)(Nc1ccccc1N1CCCCC1)c1ccc(F)cc1F | inconclusive: 18.5 µM [inhibitor, single point] |
| O=[N+]([O-])c1cc(Cl)cc(C2=NCCN2)c1 | inconclusive: 0.0026 µM [inhibitor, full curve, poor fit] |
| Cc1cc(C)n(CC(=O)Nc2cccc(C(F)(F)F)c2)n1 | inconclusive: 16.5 µM [inhibitor, single point] |
| CC(=O)Nc1ccc(-c2csc(Nc3cccc(C)n3)n2)cc1 | inactive |
| N/C(=N\O)c1ccccc1-n1cccc1 | inactive |
| CCN(CC)CCOCCOC(=O)C(CC)(CC)c1ccccc1 (tested in a mixture with another compound) | active: 6.75 µM |
| Cc1ccc(-c2noc(CCC(=O)Nc3cccc(C#N)c3)n2)cc1 | inconclusive: 3.7 µM [inhibitor, single point] |
| CCCc1[nH]nc2c1C(c1ccc(OCCN3CCOCC3)c(OCC)c1)C(C#N)=C(N)O2 (configuration not stated) | inactive |
| CS(=O)(=O)N(CC(=O)NC1CCCCC1)c1cccc(Cl)c1 | inconclusive: 4.65 µM [inhibitor, partial curve, poor fit] |
| Cc1c(-n2cc(C(=O)c3cc(Cl)ccc3O)cc(C#N)c2=O)c(=O)n(-c2ccccc2)n1C | inactive |
| O=C(Nc1ccccc1)Nc1cc([N+](=O)[O-])ccc1F | inconclusive: 18.5 µM [inhibitor, single point] |

Part of the list above in order of number of heavy atoms, rising:

| SMILES | Potency |
| --- | --- |
| O=C(Nc1ccc2c(c1)OCO2)Nc1ccc(F)cc1F | inconclusive: 0.0928 µM [inhibitor, full curve, poor fit] |
| CCCCn1c(-c2ccco2)nc2oc3ccccc3c(=O)c2c1=O | active: 9.28 µM |
| COc1c(N2CCNC(C)C2)c(F)cc2c(=O)c(C(=O)O)cn(C3CC3)c12 (configuration not stated) | active: 5.36 µM |

Going on with the list:

| SMILES | Potency |
| --- | --- |
| CCCN1CCN(C(=O)Cn2c(=O)oc3cc(S(=O)(=O)NCc4ccccc4)ccc32)CC1 | inconclusive: 18.5 µM [inhibitor, single point] |
| CC1CN(C(=O)Cn2c(=O)oc3ccccc32)CC(C)O1 (configuration not stated) | inactive |
| Cc1cc2c(cc(C(=O)OC(C(=O)NCc3ccco3)C(C)C)n2C)o1 (configuration not stated) | inconclusive: 18.5 µM [inhibitor, single point] |
| Cc1ccc(S(=O)(=O)CCc2nnc(N)s2)cc1C | inconclusive: 11.7 µM [inhibitor, single point] |
| Cc1cccc(/C=C2\Sc3ccc(C(=O)N4CCCCC4)cc3N(C)C2=O)c1 | inactive |
| Fc1cccc(NC(=S)N2CCn3cccc3C2c2cccnc2)c1 (configuration not stated) | inconclusive: 10.4 µM [inhibitor, single point] |
| C=CCN(C(=O)c1csnn1)C(C(=O)NCc1ccccc1)c1ccccc1F (configuration not stated) | inconclusive: 0.329 µM [inhibitor, partial curve, poor fit] |
| Cc1ccccc1C(=O)N1CCC(C(=O)NC(C)c2ccc(-n3ccnc3)cc2)CC1 (configuration not stated) | inconclusive: 9.28 µM [inhibitor, partial curve, poor fit] |
| C/C(=N\NC(=S)NC1CCCCC1)c1c(F)cccc1F | active: 10.4 µM |
| Cc1ccc(NC(=O)CSCC(=O)N2CCCc3ccccc32)cc1 | inactive |
| FC(F)Sc1ccc(NC(=S)NC2CCCCC2)cc1 | inconclusive: 18.5 µM [inhibitor, single point] |
| COc1ccc(C(=O)Nc2ccc(F)cc2F)cc1OC | inconclusive: 4.65 µM [inhibitor, partial curve] |
| O=C(CCC1CCCCC1)Nc1nnc(C(F)(F)F)s1 | inconclusive: 18.5 µM [inhibitor, single point] |
| O=C(NCC(c1cccs1)N1CCOCC1)c1ccccc1NS(=O)(=O)c1ccc(Br)cc1 (configuration not stated) | inconclusive: 18.5 µM [inhibitor, single point] |
| CCCN(C(=O)c1c(-c2ccccc2)noc1C)c1c(N)n(Cc2ccccc2)c(=O)[nH]c1=O | inconclusive: 13.1 µM [inhibitor, single point] |
| CNC(=O)c1c(Cl)cnn1-c1ccc(F)cc1 | inactive |
| CCOC(=O)c1cc(-c2ccc(F)cc2)nc2c1c(=O)[nH]c(=O)n2Cc1ccccc1 | inconclusive: 1.31 µM [inhibitor, partial curve] |
| CCn1c(SCC(=O)Nc2ccccc2)nnc1-c1ccc(S(=O)(=O)N2CCOCC2)cc1 | inconclusive: 10.4 µM [inhibitor, single point] |
| CCN(CC(=O)NC(C)C)C(=O)c1ccc(S(=O)(=O)N(C)c2ccccc2OC)cc1 | inconclusive: 18.5 µM [inhibitor, single point] |
| O=C(c1cc(C(=O)N2CCN(c3ccc(F)cc3)CC2)cc([N+](=O)[O-])c1)N1CCN(c2ccc(F)cc2)CC1 | inconclusive: 11.7 µM [inhibitor, single point] |
| CC[N+](CC)(CC#CCO)CC#Cc1ccccc1 | active: 10.4 µM |
